Data taken from paper PMC7954794, “Protein context shapes the specificity of SH3 domain-mediated interactions in vivo” (Nature Communications, 2021).
No constants are given. Whether binding was seen depends on the method and setting. In cells and extracts the contact can be indirect. Binding can be weak; no strength is given. Sequences can lack the tags named with a protein.

Target: Abp1 SH3-deleted (SH3 replaced by the linker GGSSGGGG) fused to DHFR F[1,2]-FLAG (S. cerevisiae)
Experiment: split reporter; DHFR protein-fragment complementation assay (DHFR-PCA) in diploid S. cerevisiae on solid medium with methotrexate; baits fused to DHFR F[1,2], preys to DHFR F[3]; colony size after the second PCA selection, four bait-prey tests; PCA score above a threshold is called a PPI

B1: Lsb3 fused to DHFR F[3] (protein, UniProt P43603 1-459)
chain: MGINNPIPRSLKSETKKAAKILASFVKPNQVFGADQVIPPDVLKRAKGLAIITILKAGFLFSGRAGSGVIVARLKDGTWSAPSAIAMAGAGAGGMVGIELTDFVFILNTQDAVKSFSEFGTITLGGNVSVSAGPLGRSAEAAASASAGGVAAVFAYSKSKGLFAGVSVEGSAIIERREANRKFYGDNCTAKMILSGRIRPPPAVDPLFRVLESRAFNYRPSNGGRGSFDDDEDDYYDDDDYYNDIPSSFSSTDASSTRPNTRSTRRRAQSGSRYTFDDDDDDDDYGTGYSRNSRLAPTNSGGSGGKLDDPSGASSYYASHRRSGTAQSRARSSRNRWADDEYDDYDDDYESGYRRGNGRDRTKDREVDDLSNRFSKSRISSASTPQTSQGRFTAPTSPSTSSPKAVALYSFAGEESGDLPFRKGDVITILKKSDSQNDWWTGRVNGREGIFPANYVELV
- binding: binds

B2: Hua2 fused to DHFR F[3] (protein, UniProt Q12134 1-243)
chain: MQQTKFGKMYLDHDSVVEYSEDEIVEADRITLGYKKRLSMIENQMRHLLEDFSLDVQQIEPILADLQKYYDAFLQLLQKRNKSLQCKRSTHQPVPSPMNSQTSTNAKVNLSGKLMKFQLNSVQKFDEENILRILQNKIEFEHYFQIDKGKKQKVLLLAVYQCLNGPTRLHKVLNIEGIIHNNSIRTILGKQVSSSKWTVFLYDVKLVLLAHRQDVPNLETSKMIVRYGDLFPCALYFKDHTAY
- binding: no binding

B3: App1 fused to DHFR F[3] (protein, UniProt P53933 1-587)
chain: MNSQGYDESSSSTAATSGPTSGDPRMGKKQRFMNLIRTTKDVYIPNLTSSISQKTMDGIRSTTNSFEGYNDLPMELPHNTTITYFPTYTTTNLVDPDGLSAPRKDFETTVRCAVSYPGNPTSRRNRWLLSLCKQYLRTGTAEADVAPVVPPHLEEDSGDLNDSQSSIESSLSSKSENRYSHMGIQEEDVLNERIQGFLSKKVPNTPVVVDLLPKDKLRGDTASFFGTTDSYGNLLIKAETDFLPSKINITLDTPIEGHADPISETFPANYVSPYGIGLISDIDDTIKHTGVTGDRRSMFRNVFIHDVQSWVIDGVPLWYKTLHDVADVDFFYVSNSPIQTFTLLKQYICANFPPGPIFLKQYSGNFFSTIMTSSANRKIQPIANILKDFPKKKFILVGDSGEHDLEAYTTTALQFPNQILAIYIRCCSNSMSDVPSHDEEVMNEVNNIIELQQRPMQMTKSTVRTRRRPPPPPIPSTQKPSLTEEQTESIRMSRRNKDENNAKRVAPPPLPNRQLPNLDANTYYVPSSQNDYGMYGAFMDKKADEWKRRVMDSIQKLSNQDTTLMFFSDPALSLEDSIRRIREKYSN
- binding: no binding
